# In PubChem BioAssay AID2685 (National Center for Advancing Translational Sciences (NCATS), 2010):
# Some of the results follow. The main result of the screen is listed elsewhere. These columns were measured beside it and carry no call. The list favours compounds with an active or inconclusive main result. Potencies come from curve fits of mixed quality, noted in brackets.
# Experiment: qHTS Assay for Lipid Storage Modulators in Drosophila S3 Cells;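 as to cell number change: cells counted by Cell Tracker Red CMTPX staining in the red channel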
# Conditions: BODIPY lipid droplet fluorescence, 18-24 h; for cell number change: measured here: cell count max response, cells fed with added oleic acid
# Method in brief: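 Laser-scanning cytometry quantifies lipid droplet accumulation (500–530 nm total intensity; droplet/cell object ratio) in oleic acid-fed (400 uM added) Drosophila S3 cells treated with a concentration series. 20 uM Triacsin C defined 100% inhibition.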
# [1] = measured here: lipid fluorescence (Fed channel) AC50, cells fed with added oleic acid
# [2] = measured here: cell number channel AC50, cells fed with added oleic acid
Compound,cell number change [%],AC50 [1],AC50 [2]
O=C(Nc1ccc(Cl)cc1C(=O)Nc1ccc(Br)cn1)c1ccco1,-16.5,"0.731 µM [rising, single point]",–
O=C(Nc1nccs1)C12CC3CC(C1)CC(C(=O)Nc1nccs1)(C3)C2,-37.5,"16.4 µM [falling, single point]","29.1 µM [falling, single point]"
CC(=O)NC(CC(=O)NCCOc1ccccc1F)c1ccccc1 (stereo not given),11.7,"29.1 µM [rising, single point]",–
CCCN(CCC)S(=O)(=O)c1ccc(C(=O)NCc2ccc3c(c2)OCO3)cc1,-1.02,"29.1 µM [falling, single point]",–
COc1ccccc1N(CN1CCCC1=O)C(=O)c1c(F)cccc1F,6.34,–,–
O=c1cc(-c2ccccc2)cc(-c2ccccc2)n1CCO,30.2,"23.1 µM [rising, single point]","25.9 µM [rising, single point]"
O=S1(=O)N=C(N2CCOCC2)c2ccccc21,7.31,"0.00461 µM [falling, full curve, poor fit]",–
CCOc1ccc(Br)cc1S(=O)(=O)NCCN(C)C,-66.3,"2.31 µM [falling, full curve]","1.03 µM [falling, full curve]"
CC(=O)c1sc(NC(=O)c2cc(S(=O)(=O)N3CCOCC3)ccc2F)nc1C,4.38,"0.0517 µM [rising, full curve, poor fit]",–
COc1ccccc1Oc1ccc(S(=O)(=O)N2CCN(C)CC2)cc1,3.38,–,"0.82 µM [rising, full curve, poor fit]"
O=C(Cc1ccccc1F)Nc1cc(Cl)ccc1N1CCCC1,17.9,–,–
Cc1ccc(NC(=O)CN(C)C(=O)C(C)OC(=O)CNC(=O)c2ccc(Cl)c([N+](=O)[O-])c2)cc1 (stereo not given),5.38,–,–
Cc1oc2cc(O)ccc2c(=O)c1Oc1ccc(F)cc1,31.5,–,"0.731 µM [rising, partial curve, poor fit]"
O=C(CN1CCN(c2ccccc2)CC1)Nc1ccc(Oc2ccccc2)cc1,–,"6.51 µM [rising, single point]",–
CCOCC(=O)Nc1nc2ccc(S(C)(=O)=O)cc2s1,-2.43,–,–
O=C(NCc1ccccc1Cl)c1ccc2c(=O)n(CC3CCCO3)c(=S)[nH]c2c1 (stereo not given),9.52,–,"2.91 µM [rising, partial curve, poor fit]"
COc1cc2nc(CN3CCC(Cc4ccccc4)CC3)[nH]c(=O)c2cc1OC,-1.94,–,–
CSc1nc(-c2ccccc2)nc(NC(=O)C(C)C)c1C(C)=O,58.6,–,–
COc1ccc2nc(-c3ccc(N)cc3)[nH]c2c1,-25.4,"23.1 µM [falling, single point]",–
COC(=O)c1ccc(CN2CCN(CCC(C)C)C(CCO)C2)cc1 (stereo not given),-7.28,–,–
CC(=O)Nc1ccc(S(=O)(=O)Nc2ccc(=O)n(Cc3ccc(Cl)c(Cl)c3)c2)cc1,-33.7,"29.1 µM [falling, single point]",–

Compound,cell number change [%],AC50 [1],AC50 [2]
CC(C)CN(C(=O)c1ccc(N2CCCC2=O)cc1)C1CCS(=O)(=O)C1 (stereo not given),-42.6,–,"20.6 µM [falling, single point]"
O=C(O)c1cccc(S(=O)(=O)N2CCCC2)c1,-36.7,"7.31 µM [falling, partial curve]","0.651 µM [falling, full curve]"
Cc1cccc(NC(=O)Nc2ccc3c(c2)N(C)C(=O)CS3)n1,–,"0.092 µM [rising, full curve, poor fit]",–
CCc1ccccc1NC(=O)c1ccc(-n2c(C)ccc2C)cc1,–,–,"0.58 µM [rising, single point]"
COc1ccc(-c2ccc3c(N)c(C(=O)c4cccc(OC)c4)sc3n2)cc1,147,–,"7.31 µM [rising, partial curve]"
COc1ccc(C(=O)CCc2nc3ccccc3s2)cc1,21.4,"0.058 µM [rising, full curve, poor fit]",–
CN(C)S(=O)(=O)c1cccc(-c2nnc(SCc3cc(Cl)cc4c3OCOC4)n2N)c1,–,"5.17 µM [rising, full curve, poor fit]","6.51 µM [rising, single point]"
Clc1ccc(CN2CCC(Cc3ccccc3)CC2)cc1,-32.8,"8.2 µM [falling, partial curve, poor fit]","8.2 µM [falling, partial curve]"
COc1ccc(C(=O)NCC(=O)N/N=C/c2c(C)[nH]c3ccccc23)cc1OC,–,"3.66 µM [rising, full curve, poor fit]",–
O=C(CN1CCOCC1)Nc1cc(Cl)ccc1Cl,-18.7,"29.1 µM [rising, single point]",–
CCOC(=O)CCP(=O)(O)C(O)c1ccccc1 (stereo not given),-26.8,–,–
CC(C)(C)c1ccc(OCCn2ccccc2=O)cc1,73.3,"20.6 µM [rising, partial curve]","29.1 µM [rising, single point]"
CCOc1ccc(N(C(=O)c2snc(C(N)=O)c2N)C(C)C(=O)NC2CCCCC2)cc1 (stereo not given),27.8,–,–
Cc1ccc(OCC(O)CNS(=O)(=O)c2ccccc2C(=O)N2CCCCC2)cc1 (stereo not given),–,–,"0.0731 µM [falling, full curve, poor fit]"
CC(=O)c1ccc(OCC(=O)N(CCC2=CCCCC2)c2c(N)n(Cc3ccccc3)c(=O)[nH]c2=O)cc1,-28.3,"29.1 µM [falling, partial curve, poor fit]",–
Cc1ccc2cc(CN(Cc3cccs3)Cc3nnnn3CC3CCCO3)c(=O)[nH]c2c1C (stereo not given),–,"1.84 µM [rising, partial curve]",–
COc1cc(/C=N/O)cc(Br)c1OS(=O)(=O)c1ccc(C)cc1,-67.3,"4.61 µM [falling, full curve]","10.3 µM [falling, partial curve]"
Cc1ccc(NC(=O)CSc2nc(=O)n(CCN3CCOCC3)c3c2CCCC3)cc1,-12.6,"29.1 µM [rising, single point]",–
O=C(COc1ncnc2scc(-c3ccc(Cl)cc3)c12)NCc1ccco1,-0.778,–,–
COc1ccc(/C=N\NC(=O)c2sc(N)nc2C)cc1OC,-12.2,"13 µM [falling, partial curve, poor fit]",–
CC(NC(=O)CN(C)CC(=O)Nc1ccccc1Br)c1ccccc1 (stereo not given),7.87,–,–

# Full records from above. Order of values: cell number change [%] | AC50 [1] | AC50 [2]
# COc1ccc(/C=N\NC(=O)c2sc(N)nc2C)cc1OC as listed: -12.2 | 13 µM [falling, partial curve, poor fit] | –
# CCOC(=O)CCP(=O)(O)C(O)c1ccccc1 (stereo not given) as listed: -26.8 | – | –
# COc1cc(/C=N/O)cc(Br)c1OS(=O)(=O)c1ccc(C)cc1 as listed: -67.3 | 4.61 µM [falling, full curve] | 10.3 µM [falling, partial curve]
# Cc1cccc(NC(=O)Nc2ccc3c(c2)N(C)C(=O)CS3)n1 as listed: – | 0.092 µM [rising, full curve, poor fit] | –

# Going on with the list.

Compound,cell number change [%],AC50 [1],AC50 [2]
CC(C)=C1C(=O)NN(c2ccc(C)c(Cl)c2)C1=O,-20.4,–,–
CCOC(=O)Cn1nc(C)n(-c2c(C)cccc2C)c1=O,-35.8,"29.1 µM [falling, single point]",–
Nc1cccc(-c2cnc3ccccc3n2)c1,-18.9,"0.731 µM [falling, partial curve, poor fit]",–
CCC(OC(=O)c1nsc(Cl)c1Cl)C(=O)NCc1ccco1 (stereo not given),1.11,"29.1 µM [falling, single point]",–
O=C(NC1CC1)C1C2C3C4CC5C3C5C4C12 (stereo not given),7.73,"16.4 µM [falling, partial curve, poor fit]",–
Cc1ccc([N+](=O)[O-])cc1NC(=O)c1ccccc1,80.2,–,"3.66 µM [rising, full curve]"
O=C(OCCOc1ccc(F)cc1)c1ccc(S(=O)(=O)N2CCCC2)cc1,-13.7,"7.31 µM [falling, partial curve, poor fit]",–
CC(=O)c1ccccc1NC(=O)CCCNC(=O)c1ccc(Cl)cc1,19.2,–,–
O=C(CN(Cc1ccccc1F)S(=O)(=O)c1ccc(Cl)cc1)NCCCO,1.15,"4.11 µM [falling, full curve]",–
NNC(=O)CSCc1nc(-c2ccc(Cl)cc2)cs1,16,–,–
CC(=O)N1CCN(c2ccc(NC(=O)c3cc4ccccc4o3)cc2)CC1,5.03,"6.51 µM [falling, single point]",–
CCCCC1CCC(C(=O)Nc2ccccc2N2CCOCC2)CC1 (stereo not given),-32.9,"32.6 µM [falling, single point]","29.1 µM [falling, single point]"
CNC(=O)CN(c1ccc(Oc2ccccc2)cc1)S(=O)(=O)c1ccc(C)cc1,31.7,"29.1 µM [rising, single point]","32.6 µM [rising, single point]"
CCC(C(=O)NC1CCCC1)N(C(=O)Cn1nnc(-c2ccc(OC)c(OC)c2)n1)c1cccc(O)c1 (stereo not given),-47.4,–,"32.6 µM [falling, partial curve]"
CC1CCCN(C(=O)CN2C(=O)c3ccccc3S2(=O)=O)C1 (stereo not given),24.3,–,–
O=C(CSc1ccc2c(c1)OCCO2)NC(=O)Cc1ccccc1,-14.2,–,"0.13 µM [falling, full curve, poor fit]"
CS(=O)(=O)N(CCc1ccccc1)CC(=O)NCc1ccccc1Cl,-68,"20.6 µM [falling, partial curve]","29.1 µM [falling, partial curve, poor fit]"
CCC(C)N1CC23C=CC(O2)C(C(=O)OCc2ccccc2)C3C1=O (stereo not given),-6.51,"0.146 µM [falling, full curve, poor fit]",–
O=C1c2ccccc2C(=O)c2c1ccc1c(=O)n(C3CCCCC3)[nH]c21,-37.1,"11.6 µM [falling, partial curve]","14.6 µM [falling, single point]"
CCC(C)N1CNc2c(c(=O)[nH]c(=S)n2-c2cccc(C)c2)C1 (stereo not given),2.21,"6.51 µM [falling, single point]",–
Cc1cc(C)n2nc(C(=O)Nc3ccc4c(c3)CCC4)nc2n1,21.3,–,–
